Experimental findings from paper PMC12797455 are described below.

Sequences of proteins named here, by UniProt entry; tags and fusion partners are left off.
UniProt Q14457: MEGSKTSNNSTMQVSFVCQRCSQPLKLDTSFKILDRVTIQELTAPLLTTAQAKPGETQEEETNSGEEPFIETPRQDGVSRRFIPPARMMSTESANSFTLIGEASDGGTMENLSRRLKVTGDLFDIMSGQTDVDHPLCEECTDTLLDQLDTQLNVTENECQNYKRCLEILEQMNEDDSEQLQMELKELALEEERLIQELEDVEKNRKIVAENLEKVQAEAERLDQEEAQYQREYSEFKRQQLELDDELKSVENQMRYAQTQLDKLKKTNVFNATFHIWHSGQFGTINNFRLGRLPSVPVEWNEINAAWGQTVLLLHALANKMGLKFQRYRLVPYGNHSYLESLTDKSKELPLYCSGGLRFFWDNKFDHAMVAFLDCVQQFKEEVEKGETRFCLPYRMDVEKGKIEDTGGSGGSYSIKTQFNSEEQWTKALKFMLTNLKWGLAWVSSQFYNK
UniProt P10415: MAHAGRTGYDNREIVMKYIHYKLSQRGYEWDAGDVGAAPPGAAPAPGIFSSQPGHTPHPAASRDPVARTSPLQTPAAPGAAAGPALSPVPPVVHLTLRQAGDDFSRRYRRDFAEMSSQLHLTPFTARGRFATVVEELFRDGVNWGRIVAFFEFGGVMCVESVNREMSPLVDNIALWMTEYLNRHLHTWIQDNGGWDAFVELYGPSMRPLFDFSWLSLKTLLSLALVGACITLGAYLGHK
UniProt P49950: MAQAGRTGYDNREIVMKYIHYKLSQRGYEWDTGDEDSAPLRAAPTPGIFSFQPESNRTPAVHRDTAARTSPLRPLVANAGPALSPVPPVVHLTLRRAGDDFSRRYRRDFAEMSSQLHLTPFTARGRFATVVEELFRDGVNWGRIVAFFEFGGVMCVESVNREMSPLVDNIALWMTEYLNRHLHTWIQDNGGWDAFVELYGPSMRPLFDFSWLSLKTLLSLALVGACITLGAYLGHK
UniProt Q91XJ1: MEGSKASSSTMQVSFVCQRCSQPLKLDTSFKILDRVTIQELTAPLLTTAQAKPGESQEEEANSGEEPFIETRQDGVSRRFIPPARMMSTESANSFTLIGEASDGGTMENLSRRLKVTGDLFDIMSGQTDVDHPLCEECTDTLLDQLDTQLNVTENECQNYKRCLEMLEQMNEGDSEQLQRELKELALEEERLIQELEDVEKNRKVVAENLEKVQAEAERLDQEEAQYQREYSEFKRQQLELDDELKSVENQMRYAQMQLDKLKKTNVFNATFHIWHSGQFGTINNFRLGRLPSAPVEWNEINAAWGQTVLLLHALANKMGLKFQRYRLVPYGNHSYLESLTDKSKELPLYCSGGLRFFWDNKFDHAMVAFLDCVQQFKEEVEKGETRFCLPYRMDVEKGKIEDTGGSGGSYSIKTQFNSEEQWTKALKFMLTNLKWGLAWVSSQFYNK

No constants are given. Whether binding was seen depends on the method and setting. Binding seen in cells or lysates may run through a third protein. Some results given as binding are weak or reduced against the parent protein; the word gives no strength.

Experiment [1] has as its target Beclin-1 (human (endogenous in C28/I2 and primary OA chondrocytes)) (UniProt Q14457). Put plainly: co-IP; total protein of C28/I2 and OA chondrocytes; Pierce Crosslink Magnetic IP/Co-IP kit; IP: BCL-2, IB: Beclin-1 and IP: Beclin-1, IB: BCL-2; cells untreated or treated with PEP, rapamycin, starvation, or BCL2 plasmid after PEP; n = 3.
Experiment [2] addresses B-cell lymphoma 2 (BCL2) (human (endogenous in C28/I2 and primary OA chondrocytes)) (UniProt P10415). Described as above.
Experiment [3] concerns the target BCL2 overexpressed from a BCL2 plasmid (UniProt P10415). Described as above.
In experiment [4] the target is BCL2 (rat) (rat (endogenous in joint tissue)) (UniProt P49950). The experiment in a line: co-IP; rat joint tissue of control, HA and HA@PEP groups (prevention and treatment); the text calls it Western blot of BCL2-Beclin1 complex levels.

In the case of “B-cell lymphoma 2 (BCL2) (from UniProt P10415 1-239)”, the binding result in experiment [1] is listed as “binds”.
With Beclin-1 (from UniProt Q14457 1-450), the binding entry in experiment [2] and in experiment [3] was “binds” in each case.
For “Beclin-1 (rat) (from UniProt Q91XJ1 1-448)”, in experiment [4], the binding result was “binds”.
